Measured values as given in patent publication CN111138528A.
These are yes or no findings as the source states them, for the method shown. Some entries that bind do so weakly or less than the wild type.

By UniProt entry, the sequences of proteins in these tests, tags left out. Residues count along the entry.
UniProt Q05320, residues 33-650: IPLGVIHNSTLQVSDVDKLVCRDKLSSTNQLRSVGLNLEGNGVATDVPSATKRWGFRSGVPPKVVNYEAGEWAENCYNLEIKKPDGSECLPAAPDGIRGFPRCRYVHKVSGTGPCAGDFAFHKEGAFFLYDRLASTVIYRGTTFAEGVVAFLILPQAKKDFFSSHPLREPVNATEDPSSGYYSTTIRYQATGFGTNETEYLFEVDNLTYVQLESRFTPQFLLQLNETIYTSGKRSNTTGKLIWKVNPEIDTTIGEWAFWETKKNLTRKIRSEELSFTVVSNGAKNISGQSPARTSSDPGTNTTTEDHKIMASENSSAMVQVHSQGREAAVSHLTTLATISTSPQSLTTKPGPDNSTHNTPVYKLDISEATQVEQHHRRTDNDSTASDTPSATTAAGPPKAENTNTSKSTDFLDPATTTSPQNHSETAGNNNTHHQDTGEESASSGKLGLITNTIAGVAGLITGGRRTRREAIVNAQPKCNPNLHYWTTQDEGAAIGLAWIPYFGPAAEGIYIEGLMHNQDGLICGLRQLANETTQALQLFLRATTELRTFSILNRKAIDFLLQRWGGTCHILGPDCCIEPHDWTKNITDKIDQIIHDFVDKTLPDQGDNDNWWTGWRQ

Biological target: EBOV GP (Ebola virus (EBOV)) (UniProt Q05320)
Assay: ELISA screen, EBOV GP coated at 1 μg/mL, transfected 293T supernatant

B1: 单克隆抗体5A8 (antibody, V domains shown)
VH: EVQLLESGGGLVKPGGSLRLSCAASGFTFSDYYMNWIRQAPGKGLEWVSYISSSGKTIYYADSVKGRFTISRDNAKKSLYLQMNSLRAEDTAVYYCARDREIVISTTILLGSDHYAMDVWGQGTTVTVSS
VL: DIQMTQSPFTLSASVGDRVTITCRASQSINSYLNWYQQKPGKAPKLLIYSASSLQSGVPSRFSGSGSGTDFTLTISSLQPEDFAIYYCQQTYRTPYTFGQGTKVEIKT
B1 was tested, and the binding was “binds”.
